Data as given in patent US8859223B1, “Compositions and methods for imaging beta-secretase activity in living cells and organisms” (Duke University, priority 2012, dated 2014).

Test system: HeLa cell membranes, lipid raft domains
Assay: Lipid raft localization by dual fluorescence confocal microscopy
Format: cell-based
Conditions: 2 μM probe, 3 hrs, 37° C., HeLa cells

Fluorescein-labeled SEQ ID NO: 1 peptide without the cholesterol anchor: Fluorescein-labeled SEQ ID NO: 1 peptide without the cholesterol anchor (EVNLDAHFWADR; fluorescein label)
cellular localization of the probe: not visible using fluorescence microscopy

probe described above for FIG. 3: fluorescein on N-terminus of SEQ ID NO: 1 peptide, cholesterol-modified aspartic acid tethered directly to C-terminus without PEG linker (EVNLDAHFWADR; N-terminal fluorescein; C-terminal cholesterol-modified Asp)
cellular localization of the probe: concentrates it in lipid raft domains
